Measurements taken from the supplement of paper PMC8104966.
The other results are listed elsewhere or left out. This data set is noisy: repeats of one test often differ as much as different tests do.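 U2OS cells expressing ACE2 were combined with U2OS cells expressing full-length spike, and imaging quantified fusion as the fraction of nuclei displaying both cell types' fluorescent markers. Non-toxic compounds with a fusion z-score under -3, i.e., over three standard deviations below the plate's DMSO wells, are called inhibitory hits.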

system: U2OS ACE2 x SARS-CoV-2 spike co-culture; experiment: cell-cell fusion (fraction fused) z-score vs plate DMSO control; higher = more fusion; conditions: 30 µM; 5 h; toxicity class: non-toxic, passed QC

Row | SMILES | cell-cell fusion (z-score)
1 | COc1ccc(-c2c(O)c3c(OC)c4c(cc3oc2=O)OC(C)(C)C=C4)cc1 | inactive: 1.23
2 | CC1(C)S[C@@H]2[C@H](NC(=O)[C@H](NC(=O)N3CCNC3=O)c3ccccc3)C(=O)N2[C@H]1C(=O)[O-].[Na+] [Azlocillin sodium] | inactive: 1.91
3 | CC(=O)NC[C@H]1CN(c2ccc(N3CCOCC3)c(F)c2)C(=O)O1 [Linezolid] | inactive: 4.1
4 | C=NC(C(=O)NC1C(=O)N2C1SC(C)(C)C2C(=O)[O-])c1ccccc1.[Na+] (centres undefined) | inactive: 1.3
5 | COc1ccc2c(O[C@@H]3C[C@H]4C(=O)N[C@]5(C(=O)NS(=O)(=O)C6CC6)C[C@H]5/C=C\CCCCN(C)C(=O)[C@@H]4C3)cc(-c3nc(C(C)C)cs3)nc2c1C [Simeprevir] | inactive: 1.91
6 | C=C[C@@](C)(O)CCC1C(=C)C[C@H](O)C2C(C)(C)CCCC12C (some centres undefined) | inactive: 0.85
7 | CC(=O)O[C@]12CO[C@@H]1C[C@H](O)[C@]1(C)C(=O)[C@H](O)C3=C(C)[C@H](OC(=O)[C@H](O)[C@@H](NC(=O)OC(C)(C)C)c4ccccc4)C[C@](O)([C@H](OC(=O)c4ccccc4)C21)C3(C)C (some centres undefined) [Docetaxel (Taxotere)] | inactive: 2.04
8 | O=C1CN(/N=C/c2ccc([N+](=O)[O-])o2)C(=O)N1 [Nitrofurantoin] | inactive: 2.39
9 | CC(=O)O[C@]1(C(C)=O)CCC2C3C=C(Cl)C4=CC(=O)[C@@H]5C[C@@H]5[C@]4(C)C3CC[C@@]21C (some centres undefined) | inactive: 1.5
10 | C[C@@H]1CC(Cl)CC[C@H]1C(=O)OC(C)(C)C (some centres undefined) | inactive: 2.28
11 | O=c1c(O)c(-c2ccc(O)c(O)c2)oc2c(O[C@@H]3O[C@H](CO)[C@H](O)[C@@H](O)[C@H]3O)c(O)cc(O)c12 | inactive: 1.37
12 | N[C@@H](Cn1oc(=O)[nH]c1=O)C(=O)O [(+)-Quisqualic acid] | inactive: -0.11
13 | OC[C@H]1O[C@@H](O[C@@H]2[C@@H](CO)OC(O)(CO)[C@H]2O)[C@H](O)[C@@H](O)[C@H]1O (some centres undefined) [Lactulose] | inactive: 3.16
14 | COc1cc(-c2coc3cc(O)c(OC)c(O)c3c2=O)cc(O)c1OC | inactive: 1.61
15 | O=C([O-])c1cc(/N=N/c2ccc(O)c(C(=O)[O-])c2)ccc1O.[Na+].[Na+] [Olsalazine disodium] | inactive: 2.62
16 | C=C1CC[C@H](O)C/C1=C/C=C1\CCC[C@]2(C)[C@@H]([C@H](C)/C=C/[C@H](C)C(C)C)CC[C@@H]12 [Vitamin D2] | inactive: -1.8
17 | COc1cc(CNC(=O)CCCC/C=C\C(C)C)ccc1O [Zucapsaicin] | inactive: 2.23
18 | C[C@@H](O[C@H]1OCCN(Cc2nc(=O)[nH][nH]2)[C@H]1c1ccc(F)cc1)c1cc(C(F)(F)F)cc(C(F)(F)F)c1 [Aprepitant] | active: -11.3
19 | Nc1nc(=O)c2c([nH]1)NC[C@H](CNc1ccc(C(=O)N[C@@H](CCC(=O)[O-])C(=O)[O-])cc1)N2C=O.[Ca+2] [Calcium Levofolinate] | inactive: 2.4
20 | Br.Oc1cc2c(c(Cl)c1O)CCNCC2c1ccccc1 (racemic) [(±)-6-Chloro-PB hydrobromide] | active: -9.67

Compounds above with fluorine (two):
Row | SMILES | cell-cell fusion (z-score)
3 | CC(=O)NC[C@H]1CN(c2ccc(N3CCOCC3)c(F)c2)C(=O)O1 [Linezolid] | inactive: 4.1
18 | C[C@@H](O[C@H]1OCCN(Cc2nc(=O)[nH][nH]2)[C@H]1c1ccc(F)cc1)c1cc(C(F)(F)F)cc(C(F)(F)F)c1 [Aprepitant] | active: -11.3

Later entries

Row | SMILES | cell-cell fusion (z-score)
21 | CO/N=C(\C(=O)N[C@@H]1C(=O)N2C(C(=O)[O-])=C(COC(C)=O)CS[C@H]12)c1csc(N)n1.[Na+] [Cefotaxime sodium] | inactive: 1.81
22 | CC(=O)N[C@@H](CC(=O)O)C(=O)O | inactive: 2.25
23 | O=C1C(O)=C(O)C(=O)C(O)=C1O | inactive: 1.72
24 | CC1(C)O[C@@H]2[C@@H](CO[C@@]3(COS(N)(=O)=O)OC(C)(C)O[C@@H]23)O1 [Topiramate] | inactive: 2.77
25 | CN(C)CCC(c1ccc(Br)cc1)c1ccccn1.O=C(O)/C=C\C(=O)O (centres undefined) [Brompheniramine hydrogen maleate] | inactive: 2.74
26 | COc1ccc(CCN(C)CCc2ccc(OC)c(OC)c2)cc1OC.Cl [YS-035 hydrochloride] | inactive: 3.52
27 | CCC(C)[C@H]1O[C@]2(CC[C@@H]1C)C[C@@H]1C[C@@H](C/C=C(\C)[C@@H](OC3C[C@H](OC)C(O[C@H]4C[C@H](OC)[C@@H](O)[C@H](C)O4)[C@H](C)O3)[C@@H](C)/C=C/C=C3\CO[C@@H]4[C@H](O)C(C)=C[C@@H](C(=O)O1)[C@]34O)O2 (some centres undefined) | active: -18
28 | COCCCN1CCC(NC(=O)c2cc(Cl)c(N)c3c2OCC3)CC1 [Prucalopride] | inactive: 1.84
29 | CC(N)(C(=O)O)c1ccc(C(=O)O)cc1 (racemic) [(±)-alpha-Methyl-4-carboxyphenylglycine] | inactive: 3.53
30 | C[C@@H](O)[C@H]1C(=O)N2C(C(=O)O)=C(SCCNC=N)C[C@H]12 [Imipenem monohydrate] | inactive: 1.89
31 | CCc1cnn2c(NCc3ccc[n+]([O-])c3)cc(N3CCCC[C@H]3CCO)nc12 | inactive: 1.27
32 | N#Cc1ccc(C(c2ccc(C#N)cc2)n2cncn2)cc1 | inactive: 1.27
33 | CN(Cc1cnc2nc(N)nc(N)c2n1)c1ccc(C(=O)N[C@@H](CCC(=O)O)C(=O)O)cc1 [Methotrexate] | inactive: 2.09
34 | Nc1nc(N)c2nc(-c3cccc(O)c3)c(-c3cccc(O)c3)nc2n1 | inactive: 2.1
35 | CC(CN(C)C)CN1c2ccccc2CCc2ccccc21.O=C(O)/C=C\C(=O)O (centres undefined) [Trimipramine maleate] | inactive: 0.258
36 | CN(C)C(=O)c1cc2cnc(Nc3ccc(N4CCNCC4)cn3)nc2n1C1CCCC1 [Ribociclib] | inactive: 3.79
37 | CCCc1nc(C(C)(C)O)c(C(=O)O)n1Cc1ccc(-c2ccccc2-c2nn[nH]n2)cc1 [Olmesartan] | inactive: 3.69
38 | COC1=C[C@@H]2[C@@H]3Cc4ccc(OC)c(O)c4[C@]2(CCN3C)CC1=O | inactive: 3.26
39 | Cn1nnc2c(C(N)=O)ncn2c1=O [Temozolomide] | inactive: 2.11
